Results reported in doi:10.1101/2022.06.22.497210.
Where two headings read alike, the source gives them in different places. No constants are given. Whether binding was seen depends on the method and setting. In cells and extracts the contact can be indirect. Here binding means that the protein was enriched with, or labelled near, the bait; the list need not be complete.

Sequences of proteins named here, by UniProt entry; tags and fusion partners are left off. A change or cut given only in a name is not applied to a line headed by its entry. Residues count along the entry.
UniProt O55242: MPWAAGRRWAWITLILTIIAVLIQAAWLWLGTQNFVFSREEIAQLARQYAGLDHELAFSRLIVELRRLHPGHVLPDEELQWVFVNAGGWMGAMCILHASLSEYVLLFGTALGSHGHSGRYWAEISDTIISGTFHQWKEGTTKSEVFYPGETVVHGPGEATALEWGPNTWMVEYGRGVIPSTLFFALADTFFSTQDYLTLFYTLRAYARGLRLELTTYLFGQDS
UniProt P27824, residues 21-592: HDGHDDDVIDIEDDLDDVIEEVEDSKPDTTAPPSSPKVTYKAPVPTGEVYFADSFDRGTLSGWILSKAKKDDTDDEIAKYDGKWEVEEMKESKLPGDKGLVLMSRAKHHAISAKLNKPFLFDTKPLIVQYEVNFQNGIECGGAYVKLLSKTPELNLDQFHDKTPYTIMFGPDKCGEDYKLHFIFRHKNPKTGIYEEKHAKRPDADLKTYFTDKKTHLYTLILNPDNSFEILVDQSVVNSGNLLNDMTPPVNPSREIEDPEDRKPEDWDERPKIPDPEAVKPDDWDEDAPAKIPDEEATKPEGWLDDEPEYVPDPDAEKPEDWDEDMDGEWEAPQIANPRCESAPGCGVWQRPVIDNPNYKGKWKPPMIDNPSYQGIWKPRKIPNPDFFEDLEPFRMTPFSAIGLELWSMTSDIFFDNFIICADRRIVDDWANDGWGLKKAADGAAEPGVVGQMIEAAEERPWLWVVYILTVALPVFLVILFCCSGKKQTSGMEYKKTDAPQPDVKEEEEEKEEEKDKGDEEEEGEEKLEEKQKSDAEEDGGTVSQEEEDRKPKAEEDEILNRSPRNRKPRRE
UniProt Q99715, residues 24-3063: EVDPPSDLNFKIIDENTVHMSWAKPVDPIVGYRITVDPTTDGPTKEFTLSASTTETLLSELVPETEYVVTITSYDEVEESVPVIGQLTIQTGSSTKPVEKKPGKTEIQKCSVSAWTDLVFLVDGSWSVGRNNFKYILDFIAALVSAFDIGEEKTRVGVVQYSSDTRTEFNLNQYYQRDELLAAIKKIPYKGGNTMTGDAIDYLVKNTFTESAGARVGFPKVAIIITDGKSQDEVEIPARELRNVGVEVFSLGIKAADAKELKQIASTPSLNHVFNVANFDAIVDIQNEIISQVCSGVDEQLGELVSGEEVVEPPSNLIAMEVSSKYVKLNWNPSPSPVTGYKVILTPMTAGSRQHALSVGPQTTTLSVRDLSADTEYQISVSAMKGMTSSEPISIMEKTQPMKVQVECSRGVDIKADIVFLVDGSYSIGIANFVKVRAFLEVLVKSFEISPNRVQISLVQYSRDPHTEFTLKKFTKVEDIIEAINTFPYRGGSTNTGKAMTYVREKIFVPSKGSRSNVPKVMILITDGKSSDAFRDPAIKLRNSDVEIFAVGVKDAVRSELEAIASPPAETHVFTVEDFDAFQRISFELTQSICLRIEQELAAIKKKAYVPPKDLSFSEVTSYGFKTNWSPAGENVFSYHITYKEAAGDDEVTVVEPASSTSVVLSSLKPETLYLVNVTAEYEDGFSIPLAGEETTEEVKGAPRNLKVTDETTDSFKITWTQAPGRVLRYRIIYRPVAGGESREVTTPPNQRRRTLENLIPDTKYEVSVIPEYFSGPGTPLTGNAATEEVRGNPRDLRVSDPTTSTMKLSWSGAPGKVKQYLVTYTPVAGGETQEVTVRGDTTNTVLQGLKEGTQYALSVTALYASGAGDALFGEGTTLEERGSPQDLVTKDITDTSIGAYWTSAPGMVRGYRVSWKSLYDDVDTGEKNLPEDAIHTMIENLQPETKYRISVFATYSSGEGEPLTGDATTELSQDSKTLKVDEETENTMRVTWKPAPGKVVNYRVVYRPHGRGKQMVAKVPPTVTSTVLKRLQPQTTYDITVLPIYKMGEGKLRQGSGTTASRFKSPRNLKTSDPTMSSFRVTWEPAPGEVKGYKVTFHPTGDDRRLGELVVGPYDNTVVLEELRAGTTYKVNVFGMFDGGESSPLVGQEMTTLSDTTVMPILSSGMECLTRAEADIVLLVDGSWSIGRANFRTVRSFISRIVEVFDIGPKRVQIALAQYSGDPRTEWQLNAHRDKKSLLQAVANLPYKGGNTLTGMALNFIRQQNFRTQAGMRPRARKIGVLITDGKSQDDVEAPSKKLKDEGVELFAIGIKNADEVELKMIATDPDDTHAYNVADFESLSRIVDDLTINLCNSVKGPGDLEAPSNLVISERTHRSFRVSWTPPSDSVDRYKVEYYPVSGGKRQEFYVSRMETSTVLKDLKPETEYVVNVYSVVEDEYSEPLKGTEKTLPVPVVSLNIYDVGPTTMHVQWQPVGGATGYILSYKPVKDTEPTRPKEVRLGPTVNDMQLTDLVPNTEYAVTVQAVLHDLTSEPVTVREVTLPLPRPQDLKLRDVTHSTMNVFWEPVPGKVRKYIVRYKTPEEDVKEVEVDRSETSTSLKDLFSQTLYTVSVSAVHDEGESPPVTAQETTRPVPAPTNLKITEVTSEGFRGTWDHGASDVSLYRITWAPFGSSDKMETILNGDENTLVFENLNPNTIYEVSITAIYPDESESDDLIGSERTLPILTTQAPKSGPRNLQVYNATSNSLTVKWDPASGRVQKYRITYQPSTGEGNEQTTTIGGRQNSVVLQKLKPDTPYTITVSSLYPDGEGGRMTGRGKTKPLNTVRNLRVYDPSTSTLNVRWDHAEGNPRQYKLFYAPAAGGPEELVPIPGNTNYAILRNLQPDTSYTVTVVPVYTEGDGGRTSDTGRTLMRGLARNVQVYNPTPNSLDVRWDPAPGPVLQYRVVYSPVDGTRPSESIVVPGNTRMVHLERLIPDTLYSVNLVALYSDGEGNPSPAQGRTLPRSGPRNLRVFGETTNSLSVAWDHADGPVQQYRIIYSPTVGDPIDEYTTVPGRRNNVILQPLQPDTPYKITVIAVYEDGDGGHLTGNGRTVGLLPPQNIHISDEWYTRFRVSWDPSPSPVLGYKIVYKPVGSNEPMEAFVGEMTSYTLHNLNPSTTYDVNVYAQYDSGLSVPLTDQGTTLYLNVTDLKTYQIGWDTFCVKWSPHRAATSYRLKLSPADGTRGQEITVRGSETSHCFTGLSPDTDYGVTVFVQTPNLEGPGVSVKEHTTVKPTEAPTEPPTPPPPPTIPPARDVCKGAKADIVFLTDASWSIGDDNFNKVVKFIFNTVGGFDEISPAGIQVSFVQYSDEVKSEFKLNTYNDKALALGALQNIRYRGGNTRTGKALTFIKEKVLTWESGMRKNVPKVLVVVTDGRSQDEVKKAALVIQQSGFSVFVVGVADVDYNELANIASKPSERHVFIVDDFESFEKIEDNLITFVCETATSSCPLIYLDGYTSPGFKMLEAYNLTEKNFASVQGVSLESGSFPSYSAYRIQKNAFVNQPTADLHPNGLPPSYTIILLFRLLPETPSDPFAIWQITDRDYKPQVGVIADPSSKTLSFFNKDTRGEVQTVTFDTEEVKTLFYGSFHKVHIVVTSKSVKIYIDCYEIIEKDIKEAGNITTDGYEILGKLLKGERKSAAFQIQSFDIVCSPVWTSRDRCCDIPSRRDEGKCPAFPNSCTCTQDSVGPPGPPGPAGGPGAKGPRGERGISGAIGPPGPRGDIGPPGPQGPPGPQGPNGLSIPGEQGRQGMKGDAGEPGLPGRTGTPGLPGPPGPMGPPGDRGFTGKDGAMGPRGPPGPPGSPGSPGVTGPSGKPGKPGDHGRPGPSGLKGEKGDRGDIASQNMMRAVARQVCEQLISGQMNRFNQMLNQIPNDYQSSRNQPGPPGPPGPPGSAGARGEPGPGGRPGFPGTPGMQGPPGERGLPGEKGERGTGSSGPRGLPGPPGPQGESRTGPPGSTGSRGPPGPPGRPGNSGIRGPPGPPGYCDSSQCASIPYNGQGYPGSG
UniProt P07996, residues 19-1170: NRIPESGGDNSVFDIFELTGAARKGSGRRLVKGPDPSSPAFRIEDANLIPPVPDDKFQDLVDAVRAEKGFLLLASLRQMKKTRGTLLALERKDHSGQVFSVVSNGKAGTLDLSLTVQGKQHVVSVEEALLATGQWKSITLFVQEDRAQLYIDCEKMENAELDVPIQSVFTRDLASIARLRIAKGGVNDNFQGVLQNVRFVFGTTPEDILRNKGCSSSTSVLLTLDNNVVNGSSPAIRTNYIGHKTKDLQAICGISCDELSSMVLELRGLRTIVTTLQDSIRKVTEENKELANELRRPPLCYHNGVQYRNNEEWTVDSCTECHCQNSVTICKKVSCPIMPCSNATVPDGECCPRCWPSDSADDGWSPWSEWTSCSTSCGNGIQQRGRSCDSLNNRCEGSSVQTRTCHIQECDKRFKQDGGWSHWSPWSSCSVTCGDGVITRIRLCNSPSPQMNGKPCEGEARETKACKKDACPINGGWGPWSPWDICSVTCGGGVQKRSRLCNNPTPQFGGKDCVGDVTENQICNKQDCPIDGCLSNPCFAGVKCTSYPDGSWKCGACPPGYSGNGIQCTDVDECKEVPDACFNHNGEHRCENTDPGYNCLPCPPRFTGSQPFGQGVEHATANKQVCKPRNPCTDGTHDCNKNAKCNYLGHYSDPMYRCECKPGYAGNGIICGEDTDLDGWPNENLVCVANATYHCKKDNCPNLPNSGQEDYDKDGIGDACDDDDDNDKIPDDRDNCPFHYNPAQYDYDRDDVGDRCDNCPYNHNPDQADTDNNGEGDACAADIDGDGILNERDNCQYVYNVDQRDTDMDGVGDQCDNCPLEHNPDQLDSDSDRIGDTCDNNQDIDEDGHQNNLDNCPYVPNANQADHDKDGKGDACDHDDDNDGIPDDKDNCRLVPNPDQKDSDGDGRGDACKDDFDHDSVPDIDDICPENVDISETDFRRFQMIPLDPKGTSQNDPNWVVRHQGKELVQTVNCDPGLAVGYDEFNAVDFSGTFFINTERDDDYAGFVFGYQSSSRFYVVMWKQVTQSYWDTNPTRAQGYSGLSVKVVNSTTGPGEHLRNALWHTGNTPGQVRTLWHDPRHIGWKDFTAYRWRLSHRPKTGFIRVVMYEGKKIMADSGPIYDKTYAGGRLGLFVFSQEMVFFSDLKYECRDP
UniProt Q99720: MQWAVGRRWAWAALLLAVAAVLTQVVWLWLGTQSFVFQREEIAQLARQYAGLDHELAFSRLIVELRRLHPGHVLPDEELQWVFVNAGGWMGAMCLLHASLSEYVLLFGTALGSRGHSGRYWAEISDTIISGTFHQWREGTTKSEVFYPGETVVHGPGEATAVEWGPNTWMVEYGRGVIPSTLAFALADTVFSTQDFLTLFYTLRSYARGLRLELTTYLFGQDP
UniProt P11021, residues 19-654: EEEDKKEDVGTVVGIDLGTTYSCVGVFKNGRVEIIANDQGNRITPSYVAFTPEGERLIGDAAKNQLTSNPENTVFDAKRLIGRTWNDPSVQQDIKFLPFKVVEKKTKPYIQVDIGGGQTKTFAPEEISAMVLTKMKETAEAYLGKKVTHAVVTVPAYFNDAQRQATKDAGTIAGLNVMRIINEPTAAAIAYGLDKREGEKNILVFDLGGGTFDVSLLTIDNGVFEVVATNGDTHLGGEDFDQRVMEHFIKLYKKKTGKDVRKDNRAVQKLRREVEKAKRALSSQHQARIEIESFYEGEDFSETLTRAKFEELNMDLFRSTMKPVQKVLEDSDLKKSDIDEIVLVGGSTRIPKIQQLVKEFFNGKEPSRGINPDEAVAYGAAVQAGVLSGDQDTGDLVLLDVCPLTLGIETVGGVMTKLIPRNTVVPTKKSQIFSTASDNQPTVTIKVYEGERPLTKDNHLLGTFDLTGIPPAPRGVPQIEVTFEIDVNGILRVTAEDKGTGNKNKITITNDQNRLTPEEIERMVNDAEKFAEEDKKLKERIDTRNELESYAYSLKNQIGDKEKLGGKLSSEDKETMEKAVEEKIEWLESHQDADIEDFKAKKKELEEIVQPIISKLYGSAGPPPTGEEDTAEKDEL

Legend:
Assay in all cases: proximity labelling
[1] = target: S1R-Apex (mouse Sigma 1 Receptor with V5-Apex2 fused to the C terminus) (mouse) (UniProt O55242)
[2] = target: S1R-Apex (mouse Sigma 1 Receptor with V5-Apex2 fused to the C terminus) (mouse) (UniProt O55242); remark: listed apart in the source
[3] = target: S1R-Apex (mouse Sigma 1 Receptor with V5-Apex2 fused to the C terminus) (mouse) (UniProt O55242); remark: listed apart in the source

Substance	binding [1]	binding [2]	binding [3]
Low density lipoprotein receptor (LDLR) (from UniProt P01130 22-860)	binds	binds	–
Calnexin (from UniProt P27824 21-592)	–	binds	binds
Collagen12 (COL12A1) (from UniProt Q99715 24-3063)	–	binds	–

The remaining lines, values ahead:

binding [1]	binding [2]	binding [3]	Substance
binds	binds	–	Thrombospondin1 (THBS1) (from UniProt P07996 19-1170)
binds	binds	–	Proprotein Convertase Subtilisin/Kexin Type 9 (PCSK9) (from UniProt Q8NBP7) (enzyme)
–	binds	–	endogenous Sigma 1 Receptor (S1R) (from UniProt Q99720 1-223)
–	binds	–	ER chaperone BiP (GRP78) (from UniProt P11021 19-654)
